Laboratory results published in PMC10547647.
No constants are given. Whether binding was seen depends on the method and setting. In cells and extracts the contact can be indirect. A result given as binding can be weak or reduced; the word gives no strength.

Tests used:
Test in all cases: co-IP; endogenous proteins of BxPC-3; IP with anti-CDC25A, CDC25C, CHK1 or 14–3-3ξ antibody, rabbit IgG as negative control; Western blot
[1] = target: T1, Cell division cycle 25A (CDC25A), endogenous (human (endogenous in BxPC-3)) (UniProt P30304)
T1 sequence: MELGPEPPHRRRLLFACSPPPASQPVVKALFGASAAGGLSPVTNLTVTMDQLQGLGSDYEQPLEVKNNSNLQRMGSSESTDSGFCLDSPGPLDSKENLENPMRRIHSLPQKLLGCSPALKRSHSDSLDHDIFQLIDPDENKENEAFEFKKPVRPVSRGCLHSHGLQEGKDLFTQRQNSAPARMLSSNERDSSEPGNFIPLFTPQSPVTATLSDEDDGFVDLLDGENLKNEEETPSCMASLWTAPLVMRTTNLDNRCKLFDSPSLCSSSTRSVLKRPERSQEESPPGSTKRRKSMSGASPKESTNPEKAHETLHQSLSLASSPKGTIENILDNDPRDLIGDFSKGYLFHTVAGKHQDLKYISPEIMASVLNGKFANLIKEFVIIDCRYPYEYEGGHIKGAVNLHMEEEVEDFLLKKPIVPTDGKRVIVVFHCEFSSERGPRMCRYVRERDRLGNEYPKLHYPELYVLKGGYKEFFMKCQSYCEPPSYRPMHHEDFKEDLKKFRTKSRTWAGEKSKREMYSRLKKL

[2] = target: T2, Cycle checkpoint kinase 1 (CHK1), endogenous (human (endogenous in BxPC-3)) (UniProt O14757)
T2 sequence: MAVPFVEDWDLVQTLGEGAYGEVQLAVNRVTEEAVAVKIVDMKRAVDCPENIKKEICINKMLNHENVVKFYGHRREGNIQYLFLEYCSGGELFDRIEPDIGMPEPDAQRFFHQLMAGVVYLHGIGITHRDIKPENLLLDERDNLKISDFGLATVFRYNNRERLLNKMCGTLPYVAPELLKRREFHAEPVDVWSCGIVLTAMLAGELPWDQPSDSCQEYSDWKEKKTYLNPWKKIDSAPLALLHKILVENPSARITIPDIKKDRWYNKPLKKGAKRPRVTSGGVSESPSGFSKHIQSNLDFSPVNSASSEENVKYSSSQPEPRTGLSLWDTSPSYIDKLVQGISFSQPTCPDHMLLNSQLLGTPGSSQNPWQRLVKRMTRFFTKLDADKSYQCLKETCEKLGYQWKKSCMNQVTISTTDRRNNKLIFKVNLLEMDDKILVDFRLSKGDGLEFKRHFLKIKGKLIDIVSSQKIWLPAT

[3] = target: T3, CDC25C, endogenous (human (endogenous in BxPC-3)) (UniProt P30307)
T3 sequence: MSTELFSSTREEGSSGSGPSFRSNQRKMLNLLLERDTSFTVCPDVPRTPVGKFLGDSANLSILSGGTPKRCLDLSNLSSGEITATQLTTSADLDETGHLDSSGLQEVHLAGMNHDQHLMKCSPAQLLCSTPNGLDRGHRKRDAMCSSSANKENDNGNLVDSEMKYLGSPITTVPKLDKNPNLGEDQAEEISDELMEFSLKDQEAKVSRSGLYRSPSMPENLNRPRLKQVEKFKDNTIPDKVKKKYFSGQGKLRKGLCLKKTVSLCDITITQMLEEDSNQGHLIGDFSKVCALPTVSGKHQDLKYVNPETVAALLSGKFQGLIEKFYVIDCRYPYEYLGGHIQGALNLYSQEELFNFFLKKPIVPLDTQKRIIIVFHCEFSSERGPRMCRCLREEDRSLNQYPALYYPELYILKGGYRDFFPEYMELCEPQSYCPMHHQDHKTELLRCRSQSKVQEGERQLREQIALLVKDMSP

binding [1]: binds | binding [2]: binds | binding [3]: binds
Substance: Four-and-a-half LIM domain protein 1 (FHL1), endogenous (from UniProt Q13642-1)
